No constants are given. Whether binding was seen depends on the method and setting. Some results given as binding are weak or reduced against the parent protein; the word gives no strength.

Chains of the proteins cited; added tags and fusions are not shown. Residues count along the entry.
UniProt P08603, residues 19-1231: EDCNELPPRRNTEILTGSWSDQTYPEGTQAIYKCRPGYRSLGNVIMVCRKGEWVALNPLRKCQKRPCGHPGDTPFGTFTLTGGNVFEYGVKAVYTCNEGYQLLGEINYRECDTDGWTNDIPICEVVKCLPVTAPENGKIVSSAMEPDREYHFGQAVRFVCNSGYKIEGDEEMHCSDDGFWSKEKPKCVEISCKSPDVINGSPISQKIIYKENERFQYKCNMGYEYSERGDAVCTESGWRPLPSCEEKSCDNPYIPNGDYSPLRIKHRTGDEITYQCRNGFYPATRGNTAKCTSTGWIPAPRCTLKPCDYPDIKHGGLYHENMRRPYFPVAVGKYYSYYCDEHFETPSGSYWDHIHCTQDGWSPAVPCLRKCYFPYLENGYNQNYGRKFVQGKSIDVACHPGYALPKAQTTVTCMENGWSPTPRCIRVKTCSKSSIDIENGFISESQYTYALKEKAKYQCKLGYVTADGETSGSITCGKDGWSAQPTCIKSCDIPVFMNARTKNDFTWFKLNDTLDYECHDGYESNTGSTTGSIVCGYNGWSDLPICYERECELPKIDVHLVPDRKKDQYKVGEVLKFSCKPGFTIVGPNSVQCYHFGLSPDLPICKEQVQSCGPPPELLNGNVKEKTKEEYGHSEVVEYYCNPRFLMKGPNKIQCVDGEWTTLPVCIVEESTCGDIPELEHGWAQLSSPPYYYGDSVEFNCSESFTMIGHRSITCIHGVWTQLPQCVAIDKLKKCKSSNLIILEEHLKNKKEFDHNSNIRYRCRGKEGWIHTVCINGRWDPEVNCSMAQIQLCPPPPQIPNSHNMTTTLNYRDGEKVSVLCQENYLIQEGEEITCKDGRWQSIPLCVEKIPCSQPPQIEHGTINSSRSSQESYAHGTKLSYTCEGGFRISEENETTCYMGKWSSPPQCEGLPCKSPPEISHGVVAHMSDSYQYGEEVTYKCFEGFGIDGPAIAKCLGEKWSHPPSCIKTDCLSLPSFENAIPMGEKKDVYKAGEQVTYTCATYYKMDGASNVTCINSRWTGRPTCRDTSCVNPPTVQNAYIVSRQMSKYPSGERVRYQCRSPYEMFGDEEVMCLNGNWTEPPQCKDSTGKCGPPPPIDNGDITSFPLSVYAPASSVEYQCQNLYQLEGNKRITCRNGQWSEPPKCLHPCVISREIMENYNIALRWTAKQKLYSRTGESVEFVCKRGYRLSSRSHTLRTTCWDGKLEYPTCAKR

Drawing on US20070025915A1, this text covers binding for 1 molecule.

Assay [1] addresses human complement factor H (human) (UniProt P08603). Briefly: non-radioactive ligand blot, 70 nM labeled AM on human plasma proteins.
Assay [2] shares this target. Briefly: ligand blot of human plasma proteins.

B1: AM labeled with biotin (peptide, UniProt P35318 95-146, looked up)
peptide: YRQSMNNFQGLRSFGCRFGTCTVQKLAHQIYQFTDKDKDNVAPRSKISPQGY
modifications: biotin conjugated through a succinimidyl ester (10:1 linker:AM); site not stated
In the case of B1, the binding result in assay [1] and in assay [2] was “binds” each time.
